Measurements reported in PubChem BioAssay AID1159578 (Peter MacCallum Cancer Centre, 2015).
This is an unselected part of about 18,000 deposited reagents. About 1,030 of them (5.7%) were called active. 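Inactive calls also include pools with fewer than 3300 nuclei, whose migration was not assessed.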 Raw values are not corrected between plates. Not all columns of the deposit are shown.

- Screen: 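Genome-wide hunt for genes controlling movement of lymphatic endothelial cells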 (primary screen)
- Cells: human lymphatic endothelial cells
- Reagents: siRNA pool against human genes, 40 nM
- Duration: 48 h after transfection
- Measurement: 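High-content imaging of dye-stained cells in a scratch assay measures filled wound area and nuclei per well; duplicate means given as ratio to mock and robust z-score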
- Scale: migration robust z-score: higher = faster migration into the scratch; nuclei per well: higher = more cells in the well
- Hit rule: 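Pools averaging fewer than 3300 nuclei are never called; remaining pools count as changed when migration robust z lies outside -2 to 2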
- Calls: active = migration changed; inactive = no migration change, or too few cells

F2RL1 (F2R like trypsin receptor 1) [SID255349595] gave migration robust z-score -0.49; migration class with cell-count check migration z between -2 and 2; enough cells; nuclei per well, duplicate mean 6241; inactive. Depletion of NEGR1 (neuronal growth regulator 1) [SID255364556] gave: migration robust z-score 0.02; migration class with cell-count check migration z between -2 and 2; enough cells; nuclei per well, duplicate mean 6746; inactive. APOF (apolipoprotein F) [SID255348328] scored migration robust z-score 0.13; migration class with cell-count check migration z between -2 and 2; enough cells; nuclei per well, duplicate mean 6338; inactive. Silencing of SERINC3 (serine incorporator 3) [SID255355477] came out at: migration robust z-score 1.19; migration class with cell-count check migration z between -2 and 2; enough cells; nuclei per well, duplicate mean 5990; inactive. CEACAM3 (CEA cell adhesion molecule 3) [SID255348886] showed migration robust z-score -0.24; migration class with cell-count check migration z between -2 and 2; enough cells; nuclei per well, duplicate mean 4199; inactive. After knock-down of SETD3 [SID255361238], the record shows migration robust z-score 0.96; migration class with cell-count check migration z between -2 and 2; enough cells; nuclei per well, duplicate mean 5774; inactive.

After knock-down of SACK1F (scaffolding CK1 anchoring protein F) [SID255362206], the record shows migration robust z-score 0.18; migration class with cell-count check migration z between -2 and 2; enough cells; nuclei per well, duplicate mean 5238; inactive. Depletion of RTTN (rotatin) [SID255356549] came out at: migration robust z-score -0.02; migration class with cell-count check migration z between -2 and 2; enough cells; nuclei per well, duplicate mean 6082; inactive. After knock-down of PFN4 (profilin family member 4) [SID255365360] the results were migration robust z-score -0.18; migration class with cell-count check migration z between -2 and 2; enough cells; nuclei per well, duplicate mean 5342; inactive. BCAN (brevican) [SID255359751] scored migration robust z-score -0.16; migration class with cell-count check migration z between -2 and 2; enough cells; nuclei per well, duplicate mean 5318; inactive. RAB11FIP3 (RAB11 family interacting protein 3) [SID255354504] gave migration robust z-score 0.22; migration class with cell-count check migration z between -2 and 2; enough cells; nuclei per well, duplicate mean 6046; inactive. CCDC110 (coiled-coil domain containing 110) [SID255364521] scored migration robust z-score -0.16; migration class with cell-count check migration z between -2 and 2; enough cells; nuclei per well, duplicate mean 4753; inactive.

Silencing of NUP50 (nucleoporin 50) [SID255355332] gave: migration robust z-score 0.09; migration class with cell-count check migration z between -2 and 2; enough cells; nuclei per well, duplicate mean 5543; inactive. For NUB1 (negative regulator of ubiquitin like proteins 1) [SID255357845] the deposit lists migration robust z-score 1.48; migration class with cell-count check migration z between -2 and 2; enough cells; nuclei per well, duplicate mean 6778; inactive.
